# Results of single-concentration screens

Source: ChEMBL document CHEMBL3988442, “University of Dundee, Small-Polar-MMV Screening Library” (2021).

Each number is a percent effect as filed.
The record does not define 0% and 100%; most values in the screen are far below 50% and negative numbers occur (in some assays of this library far below -100).
This is an unselected part of the compounds tested.
Two or more numbers in one place are separate tests of the same structure; such repeats can differ widely.

Mtb glucose medium: 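Growth of Mycobacterium tuberculosis over 3 days (7H9 medium with glucose and tyloxapol); the read-out is not stated. Concentration: 50 µM. The record gives no direction; compounds that gave an IC50 in retests scored well above the rest, so higher reads as more growth inhibition. Size under these conditions: about 69,000 compounds, about 760 of them at 50% or above in at least one test.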
Mtb cholesterol medium: 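Growth of Mycobacterium tuberculosis over 4 days (cholesterol / DPPC medium with tyloxapol); the read-out is not stated. Concentration: 50 µM. The record gives no direction; compounds that gave an IC50 in retests scored well above the rest, so higher reads as more growth inhibition. About 69,000 compounds were tested under these conditions; 0.54% (about 370) showed 50% or more at least once.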

{"compound": "Cc1cccc(C)c1OC1CN(Cc2cnc(N3CCCC3)nc2)C1", "Mtb glucose medium": -6.675, "Mtb cholesterol medium": -11.24}
{"compound": "CCOc1cc(C(=O)N2CCCC(c3noc(C)n3)C2)ccc1OC", "stereo": "stereo not drawn", "Mtb glucose medium": -2.223, "Mtb cholesterol medium": 8.975}
{"compound": "CS(=O)(=O)NC[C@H]1Cn2c(-c3ccc(F)cc3)cnc2CO1", "Mtb glucose medium": "-24.89 and 0.3723", "Mtb cholesterol medium": -15.1}
{"compound": "Cc1cc(C)n(CC(C)CNC(=O)NCc2ccco2)n1", "stereo": "stereo not drawn", "Mtb glucose medium": -34.25, "Mtb cholesterol medium": -28.43}
{"compound": "CC(=O)N1CCCN(C(=O)NCC2(c3cccs3)CCCC2)CC1", "Mtb glucose medium": 21.43, "Mtb cholesterol medium": 3.096}
{"compound": "CN1CCC/C1=N\\S(=O)(=O)c1ccc(NC(=O)c2ccco2)cc1", "Mtb glucose medium": -44.16, "Mtb cholesterol medium": -26.69}
{"compound": "O=C(C(CNCc1ccncc1)c1ccccc1)N1CCOCC1", "stereo": "stereo not drawn", "Mtb glucose medium": -57.29, "Mtb cholesterol medium": -34.55}
{"compound": "O=C(O)C(F)(F)F.[H][C@@]12CCN(Cc3ccco3)[C@]1([H])CC[C@@H](C(=O)NCC1CC1)O2", "Mtb glucose medium": -3.812, "Mtb cholesterol medium": -1.195}
{"compound": "COc1c(Br)c(C(=O)NC2CCCCC2)nn1C", "Mtb glucose medium": -0.1875, "Mtb cholesterol medium": -16.12}
{"compound": "Cc1ccccc1C(=O)NCc1ccc(N2CCNC(=O)C2)cc1", "Mtb cholesterol medium": -46.93}
{"compound": "CCN(C)C(C(=O)Nc1ccc2c(c1)CCC(=O)N2)c1ccccc1", "stereo": "stereo not drawn", "Mtb glucose medium": -2.821, "Mtb cholesterol medium": -14.11}
{"compound": "CCOc1cc(CN(C)CCCC#N)ccc1OC(F)F", "Mtb glucose medium": 46.5, "Mtb cholesterol medium": 23.81}
{"compound": "CCC1CCCCN1C(=O)Cn1nc(-c2ccc(C)s2)cc(N)c1=O", "stereo": "stereo not drawn", "Mtb glucose medium": 2.799, "Mtb cholesterol medium": "34.11 and -4.079"}
{"compound": "[H][C@@]12CCN(S(=O)(=O)CCC)[C@]1([H])CC[C@@H](c1nnc(C)o1)O2", "Mtb glucose medium": -10.86, "Mtb cholesterol medium": -41}
{"compound": "O=C(c1cc2c(s1)CCN2C(=O)C1CC1)N1CCCC1", "Mtb glucose medium": -3.218, "Mtb cholesterol medium": -6.019}
{"compound": "Cl.Cl.O=C([C@H]1CCCN1)N1CC2(CCNCC2)c2cc(Cl)ccc21", "Mtb glucose medium": -10.71, "Mtb cholesterol medium": -25.71}
{"compound": "Clc1cc(N2CCN(C3CCOCC3)CC2)nc2[nH]ccc12", "Mtb glucose medium": -8.21, "Mtb cholesterol medium": -15.67}
{"compound": "Cc1ccc(C(=O)N2CCN(C(=O)C(C)n3ccnc3)CC2)cc1F", "stereo": "stereo not drawn", "Mtb glucose medium": 18.04, "Mtb cholesterol medium": 4.819}
{"compound": "COc1ccc(C(C)N2CCC(CO)CC2)cc1Cl", "stereo": "stereo not drawn", "Mtb glucose medium": -30.91, "Mtb cholesterol medium": -21.92}
{"compound": "CNC(=O)c1cc(OC)c(OC)cc1N(C)S(C)(=O)=O", "Mtb glucose medium": "1.914 and 28.88", "Mtb cholesterol medium": -0.3946}
{"compound": "Cc1ccsc1-c1nc(CN(C)Cc2cc[nH]n2)c(C)o1", "Mtb glucose medium": 3.41, "Mtb cholesterol medium": "24.8 and 13.04"}
{"compound": "CCN(Cc1cc(-c2ccccn2)no1)C1CCS(=O)(=O)C1", "stereo": "stereo not drawn", "Mtb glucose medium": -1.559, "Mtb cholesterol medium": -12.17}
{"compound": "CN(C)C(=O)c1nc2c(s1)CCCN2Cc1ccccc1", "Mtb glucose medium": "-36.72 and 1.147", "Mtb cholesterol medium": -0.2151}
{"compound": "CC(C)(C)c1c[nH]c([C@@H]2COCCN2C2CCOCC2)n1", "Mtb glucose medium": "-15.5 and -7.9", "Mtb cholesterol medium": -15.1}
{"compound": "COc1ccccc1CNC(=O)Cn1nc(-c2ccc(F)cc2)oc1=O", "Mtb glucose medium": -28.21, "Mtb cholesterol medium": -18.28}
{"compound": "COc1ccc(OC)c(CCC(=O)Nc2cc(C)n[nH]2)c1", "Mtb glucose medium": -0.6193, "Mtb cholesterol medium": "1.499 and -6.948"}
{"compound": "CCN(C)c1ncnc2c1CCN(C(=O)c1cccn1C)CC2", "Mtb glucose medium": -14.79, "Mtb cholesterol medium": "-33.06 and -15.22"}
{"compound": "Cc1cccc(N2CCN(CCNC(=O)c3ccnn3C)CC2)c1", "Mtb glucose medium": -8.798, "Mtb cholesterol medium": "-15.08 and -0.7883"}
{"compound": "Cc1cc(C)n(CC2CCCN2C(=O)CCc2ccncc2)n1", "stereo": "stereo not drawn", "Mtb glucose medium": 10.2, "Mtb cholesterol medium": -1.83}
{"compound": "CC(C)N1CC2(CCCN(c3ccnc4ccccc34)C2)CCC1=O", "stereo": "stereo not drawn", "Mtb glucose medium": -8.959, "Mtb cholesterol medium": 23.69}
{"compound": "OCCN(Cc1nc(-c2ccc3c(c2)OCO3)no1)Cc1cccs1", "Mtb glucose medium": 21.07, "Mtb cholesterol medium": 1.745}
{"compound": "Cc1nc(CN2CC3(CCN(c4ncc(F)cn4)C3)CC2=O)cs1.O=C(O)C(F)(F)F", "stereo": "stereo not drawn", "Mtb glucose medium": 18.72, "Mtb cholesterol medium": 16.51}
{"compound": "O=C(Nc1ccc(Br)cc1F)c1ccc(N2CCOCC2)nn1", "Mtb glucose medium": 8.567, "Mtb cholesterol medium": -0.6819}
{"compound": "COCCn1ccnc1C1CCN(C(=O)CSc2nnc(C)s2)CC1", "Mtb glucose medium": -4.049, "Mtb cholesterol medium": -7.359}
{"compound": "O=C(O)C(F)(F)F.O=C(O)C(F)(F)F.O=C(O)C(F)(F)F.c1ccc(NCc2cn3c(n2)CN(Cc2cccnc2)CC3)nc1", "Mtb glucose medium": 14.05, "Mtb cholesterol medium": -6.509}

The first 4 entries again:

compound,Mtb glucose medium,Mtb cholesterol medium
Cc1cccc(C)c1OC1CN(Cc2cnc(N3CCCC3)nc2)C1,-6.675%,-11.24%
CCOc1cc(C(=O)N2CCCC(c3noc(C)n3)C2)ccc1OC (stereo not drawn),-2.223%,8.975%
CS(=O)(=O)NC[C@H]1Cn2c(-c3ccc(F)cc3)cnc2CO1,-24.89% and 0.3723%,-15.1%
Cc1cc(C)n(CC(C)CNC(=O)NCc2ccco2)n1 (stereo not drawn),-34.25%,-28.43%